Test results: US20130066055A1 (Bayer Intellectual Property GmbH, priority 2011, published 2013)

Experiment: general procedure: solution-phase peptide synthesis; HATU/DIPEA or EDC/HOBt/DIPEA
Settings: trifluoroacetate

With “N-(2-aminoethyl)-N-methyl-L-valyl-N-[(3R,4S,5S)-1-{(2S)-2-[(1R,2R)-3-{[(2S)-3-(1H-indol-3-yl)-1-(1,2-oxazinan-2-yl)-1-oxopropan-2-yl]amino}-1-methoxy-2-methyl-3-oxopropyl]pyrrolidin-1-yl}-3-methoxy-5-methyl-1-oxoheptan-4-yl]” the “final purity (method not given)” value (late stage modification step) was 65% purity and the step yield (late stage modification step) was 40% of theory.
In the case of “N-(3-carboxypropyl)-N-methyl-L-valyl-N-[(3R,4S,5S)-3-methoxy-1-{(2S)-2-[(1R,2R)-1-methoxy-2-methyl-3-oxo-3-{[(2R)-1-phenyl-4-(4-sulphophenyl)butan-2-yl]amino}propyl]pyrrolidin-1-yl}-5-methyl-1-oxoheptan-4-yl]-N-methyl-L-valinamide”, the “final purity (method not given)” value (late stage modification step) is reported as 90% purity and the step yield (late stage modification step) is reported as 66% of theory.
With “N-(3-carboxypropyl)-N-methyl-L-valyl-N-[(3R,4S,5S)-3-methoxy-1-{(2S)-2-[(1R,2R)-1-methoxy-2-methyl-3-oxo-3-{[(2S,3E)-1-phenyl-4-(4-sulphophenyl)but-3-en-2-yl]amino}propyl]pyrrolidin-1-yl}-5-methyl-1-oxoheptan-4-yl]-N-methyl-L-valinamide” the “final purity (method not given)” value (late stage modification step) was 83% purity and the step yield (late stage modification step) was 80% of theory.
With “N-(3-carboxypropyl)-N-methyl-L-valyl-N-[(3R,4S,5S)-3-methoxy-1-{(2S)-2-[(1R,2R)-1-methoxy-3-{[(2S)-1-methoxy-1-oxo-3-phenylpropan-2-yl]amino}-2-methyl-3-oxopropyl]pyrrolidin-1-yl}-5-methyl-1-oxoheptan-4-yl]-N-methyl-L-valinamide” the step yield (late stage modification step) was 22% of theory.
In the case of “N-(5-carboxypentyl)-N-methyl-L-valyl-N-[(3R,4S,5S)-1-{(2S)-2-[(1R,2R)-3-{[(2S)-1-(benzyloxy)-1-oxo-3-phenylpropan-2-yl]amino}-1-methoxy-2-methyl-3-oxopropyl]pyrrolidin-1-yl}-3-methoxy-5-methyl-1-oxoheptan-4-yl]-N-methyl-L-valinamide”, the step yield (late stage modification step) is reported as 75% of theory.
With “N-(5-carboxypentyl)-N-methyl-L-valyl-N-[(3R,4S,5S)-3-methoxy-1-{(2S)-2-[(1R,2R)-1-methoxy-2-methyl-3-oxo-3-{[(1S)-2-phenyl-1-(5-phenyl-1,3,4-oxadiazol-2-yl)ethyl]amino}propyl]pyrrolidin-1-yl}-5-methyl-1-oxoheptan-4-yl]” the step yield (late stage modification step) was 74% of theory.
With “N-(6-aminohexyl)-N-methyl-L-valyl-N-[(3R,4S,5S)-1-{(2S)-2-[(1R,2R)-3-{[(2S)-3-(4-hydroxyphenyl)-1-(1,2-oxazinan-2-yl)-1-oxopropan-2-yl]amino}-1-methoxy-2-methyl-3-oxopropyl]pyrrolidin-1-yl}-3-methoxy-5-methyl-1-oxoheptan-4-yl]” the step yield (late stage modification step, over 2 stages) was 34% of theory over 2 stages.
For “N-(6-aminohexyl)-N-methyl-L-valyl-N-[(3R,4S,5S)-3-methoxy-1-{(2S)-2-[(1R,2R)-1-methoxy-2-methyl-3-oxo-3-{[(1S)-2-phenyl-1-(5-phenyl-1,3,4-oxadiazol-2-yl)ethyl]amino}propyl]pyrrolidin-1-yl}-5-methyl-1-oxoheptan-4-yl]”, the step yield (late stage modification step) was 86% of theory.
For “N-(tert-butoxycarbonyl)-N-methyl-L-valyl-N-[(3R,4S,5S)-1-{(2S)-2-[(1R,2R)-2-carboxy-1-methoxypropyl]pyrrolidin-1-yl}-3-methoxy-5-methyl-1-oxoheptan-4-yl]-N-methyl-L-valinamide”, the step yield (late stage modification step) was 91% of theory.
With “N-(tert-butoxycarbonyl)-N-methyl-L-valyl-N-[(3R,4S,5S)-1-{(2S)-2-[(1R,2R)-3-{[(1S)-1-carboxy-2-phenylethyl]amino}-1-methoxy-2-methyl-3-oxopropyl]pyrrolidin-1-yl}-3-methoxy-5-methyl-1-oxoheptan-4-yl]-N-methyl-L-valinamide” the step yield (late stage modification step) was 94% of theory.
With “N-(tert-butoxycarbonyl)-N-methyl-L-valyl-N-[(3R,4S,5S)-1-{(2S)-2-[(1R,2R)-3-{[(2S)-1-(benzyloxy)-3-phenylpropan-2-yl]amino}-1-methoxy-2-methyl-3-oxopropyl]pyrrolidin-1-yl}-3-methoxy-5-methyl-1-oxoheptan-4-yl]-N-methyl-L-valinamide” the step yield (coupling step) was 98% of theory.
In the case of “N-[(3R,4S,5S)-1-{(2S)-2-[(1R,2R)-3-{[(2S)-3-(1H-indol-3-yl)-1-(1,2-oxazinan-2-yl)-1-oxopropan-2-yl]amino}-1-methoxy-2-methyl-3-oxopropyl]pyrrolidin-1-yl}-3-methoxy-5-methyl-1-oxoheptan-4-yl]-N-methyl-L-valinamide”, the step yield (late stage modification step) is reported as 87% of theory.
With “N-[(9H-fluoren-9-ylmethoxy)carbonyl]-N-methyl-L-valyl-N-[(3R,4S,5S)-1-{(2S)-2-[(1R,2R)-2-carboxy-1-methoxypropyl]pyrrolidin-1-yl}-3-methoxy-5-methyl-1-oxoheptan-4-yl]-N-methyl-L-valinamide” the step yield (coupling step) was 35% of theory.
In the case of “N-methyl-L-valyl-N-[(3R,4S,5S)-1-{(2S)-2-[(1R,2R)-3-{[(1S,2R)-1-hydroxy-1-phenylpropan-2-yl]amino}-1-methoxy-2-methyl-3-oxopropyl]pyrrolidin-1-yl}-3-methoxy-5-methyl-1-oxoheptan-4-yl]-N-methyl-L-valinamide”, the step yield (late stage modification step) is reported as 52%.
In the case of “N-methyl-L-valyl-N-[(3R,4S,5S)-1-{(2S)-2-[(1R,2R)-3-{[(2S)-1-(adamantan-1-ylmethoxy)-1-oxo-3-phenylpropan-2-yl]amino}-1-methoxy-2-methyl-3-oxopropyl]pyrrolidin-1-yl}-3-methoxy-5-methyl-1-oxoheptan-4-yl]-N-methyl-L-valinamide trifluoroacetate”, the step yield (late stage modification step) is reported as 81% of theory.
In the case of “N-methyl-L-valyl-N-[(3R,4S,5S)-1-{(2S)-2-[(1R,2R)-3-{[(2S)-1-(benzylsulphonyl)-3-phenylpropan-2-yl]amino}-1-methoxy-2-methyl-3-oxopropyl]pyrrolidin-1-yl}-3-methoxy-5-methyl-1-oxoheptan-4-yl]-N-methyl-L-valinamide trifluoroacetate”, the step yield (late stage modification step) is reported as 99% of theory.
“N-methyl-L-valyl-N-[(3R,4S,5S)-1-{(2S)-2-[(1R,2R)-3-{[(2S)-3-(1H-indol-3-yl)-1-(1,2-oxazinan-2-yl)-1-oxopropan-2-yl]amino}-1-methoxy-2-methyl-3-oxopropyl]pyrrolidin-1-yl}-3-methoxy-5-methyl-1-oxoheptan-4-yl]-N-methyl-L-valinamide” gave a step yield (coupling step, over 2 stages) of 67% over 2 stages.
With “N-methyl-L-valyl-N-[(3R,4S,5S)-1-{(2S)-2-[(1R,2R)-3-{[(2S,3E)-1,4-diphenylbut-3-en-2-yl]amino}-1-methoxy-2-methyl-3-oxopropyl]pyrrolidin-1-yl}-3-methoxy-5-methyl-1-oxoheptan-4-yl]-N-methyl-L-valinamide trifluoroacetate” the step yield (late stage modification step) was 99% of theory.
With “N-methyl-L-valyl-N-[(3R,4S,5S)-3-methoxy-1-{(2S)-2-[(1R,2R)-1-methoxy-2-methyl-3-oxo-3-{[(1R)-2-phenyl-1-(5-phenyl-1,3,4-oxadiazol-2-yl)ethyl]amino}propyl]pyrrolidin-1-yl}-5-methyl-1-oxoheptan-4-yl]-N-methyl-L-valinamide trifluoroacetate” the step yield (late stage modification step) was 99% of theory.
For “N-methyl-L-valyl-N-[(3R,4S,5S)-3-methoxy-1-{(2S)-2-[(1R,2R)-1-methoxy-2-methyl-3-oxo-3-{[(2R)-1-phenyl-4-(4-sulphophenyl)butan-2-yl]amino}propyl]pyrrolidin-1-yl}-5-methyl-1-oxoheptan-4-yl]-N-methyl-L-valinamide trifluoroacetate”, the “final purity (method not given)” value (late stage modification step) was 90% purity and the step yield (late stage modification step) was 85% of theory.
For “N-methyl-L-valyl-N-[(3R,4S,5S)-3-methoxy-1-{(2S)-2-[(1R,2R)-1-methoxy-2-methyl-3-{[(1S,2R)-1-(1,2-oxazinan-2-ylcarbonyl)-2-phenylcyclopropyl]amino}-3-oxopropyl]pyrrolidin-1-yl}-5-methyl-1-oxoheptan-4-yl]-N-methyl-L-valinamide trifluoroacetate”, the step yield (late stage modification step) was 64% of theory.
In the case of “N-methyl-L-valyl-N-[(3R,4S,5S)-3-methoxy-1-{(2S)-2-[(1R,2R)-1-methoxy-2-methyl-3-{[(2S)-1-(1,2-oxazinan-2-yl)-1-oxo-3-phenylpropan-2-yl]amino}-3-oxopropyl]pyrrolidin-1-yl}-5-methyl-1-oxoheptan-4-yl]-N-methyl-L-valinamide trifluoroacetate”, the step yield (late stage modification step) is reported as 54% of theory.
With “N-methyl-L-valyl-N-[(3R,4S,5S)-3-methoxy-1-{(2S)-2-[(1R,2R)-1-methoxy-2-methyl-3-{[(2S)-1-(2-oxa-3-azabicyclo[2.2.2]oct-5-en-3-yl)-1-oxo-3-phenylpropan-2-yl]amino}-3-oxopropyl]pyrrolidin-1-yl}-5-methyl-1-oxoheptan-4-yl]-N-methyl-L-valinamide trifluoroacetate” the step yield (late stage modification step) was 26% of theory.
In the case of “N-methyl-L-valyl-N-[(3R,4S,5S)-3-methoxy-1-{(2S)-2-[(1R,2R)-1-methoxy-2-methyl-3-{[(2S,3S)-1-(1,2-oxazinan-2-yl)-1-oxo-3-phenylbutan-2-yl]amino}-3-oxopropyl]pyrrolidin-1-yl}-5-methyl-1-oxoheptan-4-yl]-N-methyl-L-valinamide trifluoroacetate”, the step yield (late stage modification step) is reported as 46% of theory.
With “N-{4-[(2,5-dioxopyrrolidin-1-yl)oxy]-4-oxobutyl}-N-methyl-L-valyl-N-[(3R,4S,5S)-3-methoxy-1-{(2S)-2-[(1R,2R)-1-methoxy-2-methyl-3-oxo-3-{[(2R)-1-phenyl-4-(4-sulphophenyl)butan-2-yl]amino}propyl]pyrrolidin-1-yl}-5-methyl-1-oxoheptan-4-yl]-N-methyl-L-valinamide” the “final purity (method not given)” value (late stage modification step) was 72% purity and the step yield (late stage modification step) was 25% of theory.
For “N-{6-[(bromoacetyl)amino]hexyl}-N-methyl-L-valyl-N-[(3R,4S,5S)-1-{(2S)-2-[(1R,2R)-3-{[(2S)-3-(1H-indol-3-yl)-1-(1,2-oxazinan-2-yl)-1-oxopropan-2-yl]amino}-1-methoxy-2-methyl-3-oxopropyl]pyrrolidin-1-yl}-3-methoxy-5-methyl-1-oxoheptan-4-yl]-N-methyl-L-valinamide”, the step yield (late stage modification step) was 26% of theory.
